Values from PubChem BioAssay AID504791 (Drosophila RNAi Screening Center, 2011)

- Screen: 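Genes of the fly required for silencing by miRNA, siRNA or endo-siRNA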 (primary screen)
- Cells: Drosophila S2-derived reporter cells
- Reagents: long dsRNA against Drosophila genes, about 150-250 ng dsRNA per well (siRNA assay); about 80-120 ng (miRNA assay)
- Timing: about 5 days (siRNA assay); about 4 days (miRNA assay)
- Conditions: copper sulfate induction of reporters: 25 µM (siRNA assay); 200 mM stated (miRNA assay), 1-2 days before reading
- Measurement: 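Dual luciferase assay: Renilla to firefly signal ratio in each well, scaled to the mean ratio of its plate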
- Call rule: 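First-pass picks had plate-scaled ratios over 1.5 for the siRNA assay, over 1.6 for the miRNA assay, or under 0.6; two distinct dsRNAs had to score alike on retest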
The deposit covers about 23,000 reagents; below is a random part of those that have a named target and a result. In the full data, 199 (0.86%) were called active. 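Plate-scaled ratios behind the calls are not deposited; printed light signals are raw; many rows marked increased or decreased are still called inactive.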 A number with no mark means an inactive call. Reagents against one gene are numbered here. Names joined by + are all predicted targets of the reagent. No sequences are given here. The record does not give: the direction of the score.

predicted target	reagent no.	stable siRNA reporter change	stable assay Renilla, run 1 (luminescence)	stable assay firefly, run 1 (luminescence)
CG13051	1		7386	4.13e5
CG15308	1		5534	3.45e5
alpha-Catr	1		4487	2.56e5
cuff	1		6986	4.28e5
CG34195	1		6666	3.21e5
Tango5	1		6331	3.87e5
Tret1-2	1		4875	2.23e5
Oamb	1		4659	4.75e5
Oamb	2		6468	3.66e5
Oamb	3		7442	3.88e5
Obp22a	1		5927	3.65e5
CG2004	1		5247	3.34e5
List	1		6388	2.38e5
CG14739	1		5667	3.91e5
CG3045	1		7543	5.21e5
sPLA2	1		5883	3.02e5
Sqor	1		7923	4.71e5
CG6788 + CR32496	1		9511	6.13e5
dap	1		7871	3.13e5

The list goes on (7 carried over from the part before).
predicted target	reagent no.	stable siRNA reporter change	stable assay Renilla, run 1 (luminescence)	stable assay firefly, run 1 (luminescence)
List	1		6388	2.38e5
CG14739	1		5667	3.91e5
CG3045	1		7543	5.21e5
sPLA2	1		5883	3.02e5
Sqor	1		7923	4.71e5
CG6788 + CR32496	1		9511	6.13e5
dap	1		7871	3.13e5
RpL35	1		5250	2.47e5
CG14294	1		7059	3.64e5
Coprox	1		11916	1.49e5
B4	1		6110	1.08e6
B4	2		8206	4.35e5
Claspin	1		4140	4.39e5
pk	1	reporter ratio raised past the hit cutoff (active)	12218	4.40e5
pk	2		7295	4.12e5
pk	3		8002	5.36e5
CG11755	1		7487	5.31e5
CG31294	1		8639	6.18e5
CG42583	1		4307	3.68e5
CG1492	1		5636	4.00e5
CG13843	1		7879	5.04e5
Cpr64Ac	1		6191	3.46e5
ND6 (retired record)	1		4679	4.45e5
ca	1		8912	4.88e5
ca	2		5522	3.38e5
ca	3		5771	3.40e5
CG40006	1		6431	5.33e5
CG40006	2		6335	4.99e5
CG40006	3		6451	3.55e5
CG40006	4		5891	4.13e5
achi	1		4895	2.33e5
xmas	1		5943	4.65e5
xmas	2		10417	5.77e5
thr	1		9929	3.98e5
Sec16	1		4571	3.96e5
Sec16	2		4563	3.79e5
CG3770	1		55232	8.40e5
Mhc	1		7028	4.96e5
Tdc1	1		5051	3.52e5
RPA2	1		8505	7.26e5
wol	1		13592	1.11e6
skd	1		5376	3.25e5
ci	1		6072	4.52e5
inaE	1		6399	5.15e5
inaE	2		8342	5.53e5
inaE	3		3851	3.61e5
inaE	4		5734	5.01e5
